Data published in paper PMC9594772.
These are yes or no findings as the source states them, for the method shown. Some results given as binding are weak or reduced against the parent protein; the word gives no strength.

The chains behind the UniProt entries cited, without tags or fusion partners. Residues count along the entry.
UniProt P46531, residues 19-2555: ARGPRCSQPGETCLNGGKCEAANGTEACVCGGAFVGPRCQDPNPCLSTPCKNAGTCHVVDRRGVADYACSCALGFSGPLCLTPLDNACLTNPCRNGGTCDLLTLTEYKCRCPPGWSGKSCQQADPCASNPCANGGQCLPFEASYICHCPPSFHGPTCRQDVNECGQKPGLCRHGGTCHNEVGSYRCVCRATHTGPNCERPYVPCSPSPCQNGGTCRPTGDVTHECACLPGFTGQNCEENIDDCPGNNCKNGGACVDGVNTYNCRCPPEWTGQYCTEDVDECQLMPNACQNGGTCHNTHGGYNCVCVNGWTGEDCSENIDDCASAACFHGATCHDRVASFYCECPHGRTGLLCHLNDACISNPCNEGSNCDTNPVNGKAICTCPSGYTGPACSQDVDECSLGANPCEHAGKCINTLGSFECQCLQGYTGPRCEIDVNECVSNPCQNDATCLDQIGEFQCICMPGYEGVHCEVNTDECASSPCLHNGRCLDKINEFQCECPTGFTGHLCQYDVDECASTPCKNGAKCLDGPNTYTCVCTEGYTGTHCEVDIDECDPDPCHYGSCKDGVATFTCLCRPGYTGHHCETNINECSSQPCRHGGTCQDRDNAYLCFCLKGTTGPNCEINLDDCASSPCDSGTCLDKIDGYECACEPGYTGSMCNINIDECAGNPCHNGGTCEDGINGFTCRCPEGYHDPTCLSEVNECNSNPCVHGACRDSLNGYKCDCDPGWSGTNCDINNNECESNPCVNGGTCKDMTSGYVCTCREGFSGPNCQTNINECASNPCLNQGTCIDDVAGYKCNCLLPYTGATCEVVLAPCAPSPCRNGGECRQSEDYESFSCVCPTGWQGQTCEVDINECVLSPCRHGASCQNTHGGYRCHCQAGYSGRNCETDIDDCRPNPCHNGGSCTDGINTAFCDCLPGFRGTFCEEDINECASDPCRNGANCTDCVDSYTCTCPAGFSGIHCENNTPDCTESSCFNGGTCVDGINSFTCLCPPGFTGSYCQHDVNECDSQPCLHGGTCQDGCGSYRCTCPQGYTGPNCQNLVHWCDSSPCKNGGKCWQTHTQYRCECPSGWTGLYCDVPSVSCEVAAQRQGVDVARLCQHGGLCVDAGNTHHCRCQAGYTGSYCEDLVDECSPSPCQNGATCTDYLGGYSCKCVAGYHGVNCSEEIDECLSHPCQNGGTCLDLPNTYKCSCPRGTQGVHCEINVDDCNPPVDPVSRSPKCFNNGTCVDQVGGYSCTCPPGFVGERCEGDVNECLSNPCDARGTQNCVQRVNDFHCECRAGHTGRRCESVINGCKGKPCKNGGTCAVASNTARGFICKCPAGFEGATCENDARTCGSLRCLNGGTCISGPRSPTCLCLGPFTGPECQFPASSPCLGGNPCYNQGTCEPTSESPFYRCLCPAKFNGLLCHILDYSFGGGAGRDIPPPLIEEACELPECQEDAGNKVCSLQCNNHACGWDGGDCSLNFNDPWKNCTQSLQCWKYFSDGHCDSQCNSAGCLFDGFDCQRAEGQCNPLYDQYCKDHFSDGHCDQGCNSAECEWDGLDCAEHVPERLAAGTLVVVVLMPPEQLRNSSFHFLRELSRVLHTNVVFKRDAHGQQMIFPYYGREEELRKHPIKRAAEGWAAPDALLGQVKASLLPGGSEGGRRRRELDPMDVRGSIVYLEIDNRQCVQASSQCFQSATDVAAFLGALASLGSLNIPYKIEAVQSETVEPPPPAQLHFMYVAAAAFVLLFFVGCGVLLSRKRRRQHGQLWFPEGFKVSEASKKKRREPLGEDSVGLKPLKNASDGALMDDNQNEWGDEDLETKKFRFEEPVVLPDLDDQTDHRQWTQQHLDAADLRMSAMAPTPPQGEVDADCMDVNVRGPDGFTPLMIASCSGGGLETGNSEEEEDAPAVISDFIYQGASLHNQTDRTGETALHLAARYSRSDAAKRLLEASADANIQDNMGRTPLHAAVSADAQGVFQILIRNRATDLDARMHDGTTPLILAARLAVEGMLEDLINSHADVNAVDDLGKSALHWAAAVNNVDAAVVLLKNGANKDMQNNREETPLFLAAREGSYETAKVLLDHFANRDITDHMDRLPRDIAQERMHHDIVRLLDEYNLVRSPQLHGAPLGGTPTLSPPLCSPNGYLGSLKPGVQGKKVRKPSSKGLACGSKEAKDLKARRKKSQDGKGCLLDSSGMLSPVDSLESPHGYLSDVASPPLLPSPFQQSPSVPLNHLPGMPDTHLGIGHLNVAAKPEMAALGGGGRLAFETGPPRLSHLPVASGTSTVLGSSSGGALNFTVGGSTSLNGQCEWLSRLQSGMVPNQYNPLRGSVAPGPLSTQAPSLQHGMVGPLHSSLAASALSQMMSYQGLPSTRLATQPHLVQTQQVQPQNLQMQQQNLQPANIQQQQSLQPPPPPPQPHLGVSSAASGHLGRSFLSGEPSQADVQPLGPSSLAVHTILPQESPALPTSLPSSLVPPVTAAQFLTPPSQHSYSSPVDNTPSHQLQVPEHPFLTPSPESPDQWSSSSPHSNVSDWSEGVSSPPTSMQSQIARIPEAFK
UniProt O00548, residues 18-723: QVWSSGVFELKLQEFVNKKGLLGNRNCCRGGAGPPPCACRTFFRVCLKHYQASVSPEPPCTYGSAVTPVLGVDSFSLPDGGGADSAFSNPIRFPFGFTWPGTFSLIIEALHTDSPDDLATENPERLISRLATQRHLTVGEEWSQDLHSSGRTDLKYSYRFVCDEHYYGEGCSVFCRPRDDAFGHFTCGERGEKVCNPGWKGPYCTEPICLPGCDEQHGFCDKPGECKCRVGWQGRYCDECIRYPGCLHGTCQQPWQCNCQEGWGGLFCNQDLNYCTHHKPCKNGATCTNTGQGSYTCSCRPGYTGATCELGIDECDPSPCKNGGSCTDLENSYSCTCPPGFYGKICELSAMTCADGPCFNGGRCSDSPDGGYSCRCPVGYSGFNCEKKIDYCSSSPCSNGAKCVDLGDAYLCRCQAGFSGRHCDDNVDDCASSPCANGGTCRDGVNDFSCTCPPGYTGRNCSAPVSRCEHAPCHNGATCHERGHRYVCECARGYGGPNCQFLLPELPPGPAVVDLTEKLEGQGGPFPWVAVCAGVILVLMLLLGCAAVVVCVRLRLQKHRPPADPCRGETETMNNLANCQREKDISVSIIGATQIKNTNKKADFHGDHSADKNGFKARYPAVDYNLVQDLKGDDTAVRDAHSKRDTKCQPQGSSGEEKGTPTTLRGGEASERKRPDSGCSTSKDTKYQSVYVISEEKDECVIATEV

Target: Notch1 receptor with a citrine tag at its ECD (Notch1-citrine) (UniProt P46531)
Assay: live-cell trans-endocytosis (TEC) imaging of co-cultured cells; CHO-TetR cells with Notch1-citrine co-cultured 1:1 with CHO-TetR cells with mCherry-tagged ligand variants; spinning disk confocal, 37 °C; images 10 h after induction of ligand expression with 100 ng/mL dox

binding: binds
Substance: wild type human Dll1 (hDll1) fused to mCherry (from UniProt O00548 18-723) (ligand)
